# Experimental data published in the supplement of paper PMC10077471.
# Whole data set: some 1,900 compounds, median “excess over highest single agent (ExcessHSA) synergy score, 6x6 matrix” near -83, cut for the lowest 2% near -370. Some of the results follow.
# System: NCI-H446
# Assay: excess over highest single agent (ExcessHSA) synergy score, 6x6 matrix; higher = less synergy (more negative = stronger synergy)
# Settings: 72 h; CellTiter-Glo viability
row,SMILES,excess over highest single agent
1,O=C(O)C(Cc1c[nH]c2ccccc12)N1C(=O)c2ccccc2C1=O (centres undefined) + Cc1sc2c(c1C)C(c1ccc(Cl)cc1)=N[C@@H](CC(=O)OC(C)(C)C)c1nnc(C)n1-2 [NCGC00250412-19],-158
2,COCC1OC(=O)c2coc3c2C1(C)C1=C(C3=O)C2CCC(O)C2(C)CC1OC(C)=O (centres undefined) + Cc1sc2c(c1C)C(c1ccc(Cl)cc1)=N[C@@H](CC(=O)OC(C)(C)C)c1nnc(C)n1-2 [NCGC00250412-19],-423
3,O=NN(CCCl)C(=O)NCCCl + Cc1sc2c(c1C)C(c1ccc(Cl)cc1)=N[C@@H](CC(=O)OC(C)(C)C)c1nnc(C)n1-2 [NCGC00250412-19],-51.8
4,CCOC(=O)c1ncn2c1CN(C)C(=O)c1cc(F)ccc1-2 + Cc1sc2c(c1C)C(c1ccc(Cl)cc1)=N[C@@H](CC(=O)OC(C)(C)C)c1nnc(C)n1-2 [NCGC00250412-19],53.7
5,CNC(=O)c1ccccc1Nc1nc(Nc2ccc(N3CCOCC3)cc2OC)ncc1Cl + Cc1sc2c(c1C)C(c1ccc(Cl)cc1)=N[C@@H](CC(=O)OC(C)(C)C)c1nnc(C)n1-2 [NCGC00250412-19],-63.2
6,CC1=C(C(=O)Nc2cc3cn[nH]c3cc2F)C(c2ccc(C(F)(F)F)cc2)CC(=O)N1 (centres undefined) + Cc1sc2c(c1C)C(c1ccc(Cl)cc1)=N[C@@H](CC(=O)OC(C)(C)C)c1nnc(C)n1-2 [NCGC00250412-19],-53.3
7,O=C(Nc1ccncc1)C(=O)c1cn(Cc2ccc(Cl)cc2)c2ccccc12 + Cc1sc2c(c1C)C(c1ccc(Cl)cc1)=N[C@@H](CC(=O)OC(C)(C)C)c1nnc(C)n1-2 [NCGC00250412-19],-184
8,COC(=O)N[C@H](C(=O)N1CCC[C@H]1c1ncc(-c2ccc(-c3ccc(-c4cnc([C@@H]5CCCN5C(=O)[C@@H](NC(=O)OC)C(C)C)[nH]4)cc3)cc2)[nH]1)C(C)C + Cc1sc2c(c1C)C(c1ccc(Cl)cc1)=N[C@@H](CC(=O)OC(C)(C)C)c1nnc(C)n1-2 [NCGC00250412-19],-60.2
9,Nc1nc(N)c2nc(CNc3ccc(C(=O)N[C@@H](CCC(=O)O)C(=O)O)cc3)cnc2n1 + Cc1sc2c(c1C)C(c1ccc(Cl)cc1)=N[C@@H](CC(=O)OC(C)(C)C)c1nnc(C)n1-2 [NCGC00250412-19],-252
10,CCCC1O[C@@H]2C[C@H]3[C@@H]4CCC5=CC(=O)C=C[C@]5(C)[C@H]4[C@@H](O)C[C@]3(C)[C@]2(C(=O)CO)O1 (some centres undefined) + Cc1sc2c(c1C)C(c1ccc(Cl)cc1)=N[C@@H](CC(=O)OC(C)(C)C)c1nnc(C)n1-2 [NCGC00250412-19],22.3
11,COc1cc(C(C)=O)ccc1OCCCN1CCC(c2noc3cc(F)ccc23)CC1 + Cc1sc2c(c1C)C(c1ccc(Cl)cc1)=N[C@@H](CC(=O)OC(C)(C)C)c1nnc(C)n1-2 [NCGC00250412-19],-238
12,COc1ccc(/C=C\c2cc(OC)c(OC)c(OC)c2)cc1O + Cc1sc2c(c1C)C(c1ccc(Cl)cc1)=N[C@@H](CC(=O)OC(C)(C)C)c1nnc(C)n1-2 [NCGC00250412-19],-98.5
13,Nc1[nH]nc2nnc(-c3c(-c4ccccc4)nn4ccccc34)cc12 + Cc1sc2c(c1C)C(c1ccc(Cl)cc1)=N[C@@H](CC(=O)OC(C)(C)C)c1nnc(C)n1-2 [NCGC00250412-19],98.9
14,CC(C)OC(=O)CCC/C=C\C[C@@H]1[C@@H](/C=C/[C@@H](O)COc2cccc(C(F)(F)F)c2)[C@H](O)C[C@@H]1O + Cc1sc2c(c1C)C(c1ccc(Cl)cc1)=N[C@@H](CC(=O)OC(C)(C)C)c1nnc(C)n1-2 [NCGC00250412-19],-230
15,CCOC(=O)N1CCN([N+]([O-])=NOc2ccc([N+](=O)[O-])cc2[N+](=O)[O-])CC1 + Cc1sc2c(c1C)C(c1ccc(Cl)cc1)=N[C@@H](CC(=O)OC(C)(C)C)c1nnc(C)n1-2 [NCGC00250412-19],-84.4
16,O=C(N[C@H]1CN2CCC1CC2)c1ccc(Cl)cc1 + Cc1sc2c(c1C)C(c1ccc(Cl)cc1)=N[C@@H](CC(=O)OC(C)(C)C)c1nnc(C)n1-2 [NCGC00250412-19],-70.5
17,Cc1cc(NS(=O)(=O)c2ccc(N)cc2)no1 + Cc1sc2c(c1C)C(c1ccc(Cl)cc1)=N[C@@H](CC(=O)OC(C)(C)C)c1nnc(C)n1-2 [NCGC00250412-19],334
18,CC(C)N(CCCNC(=O)Nc1ccc(C(C)(C)C)cc1)C[C@H]1O[C@@H](n2cc(Br)c3c(N)ncnc32)[C@H](O)[C@@H]1O + Cc1sc2c(c1C)C(c1ccc(Cl)cc1)=N[C@@H](CC(=O)OC(C)(C)C)c1nnc(C)n1-2 [NCGC00250412-19],-14.8
19,COc1cc(N2CCN(C)CC2)ccc1Nc1nc(N)c(C(=O)c2c(Cl)cccc2Cl)s1 + Cc1sc2c(c1C)C(c1ccc(Cl)cc1)=N[C@@H](CC(=O)OC(C)(C)C)c1nnc(C)n1-2 [NCGC00250412-19],-47.4
20,O=C(C[C@@H]1C/C=C/CCC(=O)O[C@H](c2ccccc2)CNC1=O)NCc1ccc(Cl)cc1 + Cc1sc2c(c1C)C(c1ccc(Cl)cc1)=N[C@@H](CC(=O)OC(C)(C)C)c1nnc(C)n1-2 [NCGC00250412-19],-98.1
21,Cc1cc(OCCCS(C)(=O)=O)cc(C)c1-c1cccc(COc2ccc3c(c2)OC[C@H]3CC(=O)O)c1 + Cc1sc2c(c1C)C(c1ccc(Cl)cc1)=N[C@@H](CC(=O)OC(C)(C)C)c1nnc(C)n1-2 [NCGC00250412-19],-123
22,CCN(CC)C(=S)SSC(=S)N(CC)CC + Cc1sc2c(c1C)C(c1ccc(Cl)cc1)=N[C@@H](CC(=O)OC(C)(C)C)c1nnc(C)n1-2 [NCGC00250412-19],-184
23,Cn1cc(C[C@@H](N)C(=O)O)c2ccccc21 + Cc1sc2c(c1C)C(c1ccc(Cl)cc1)=N[C@@H](CC(=O)OC(C)(C)C)c1nnc(C)n1-2 [NCGC00250412-19],-157
24,COc1cc2/c(=N/c3ccc(Br)cc3F)nc[nH]c2cc1OCC1CCN(C)CC1 + Cc1sc2c(c1C)C(c1ccc(Cl)cc1)=N[C@@H](CC(=O)OC(C)(C)C)c1nnc(C)n1-2 [NCGC00250412-19],-157

# Some values from above:
# CCOC(=O)N1CCN([N+]([O-])=NOc2ccc([N+](=O)[O-])cc2[N+](=O)[O-])CC1 + Cc1sc2c(c1C)C(c1ccc(Cl)cc1)=N[C@@H](CC(=O)OC(C)(C)C)c1nnc(C)n1-2 [NCGC00250412-19] – excess over highest single agent: -84.4
# COc1cc(N2CCN(C)CC2)ccc1Nc1nc(N)c(C(=O)c2c(Cl)cccc2Cl)s1 + Cc1sc2c(c1C)C(c1ccc(Cl)cc1)=N[C@@H](CC(=O)OC(C)(C)C)c1nnc(C)n1-2 [NCGC00250412-19] – excess over highest single agent: -47.4
